Source: patent publication EP4778539A1
No constants are given. Whether binding was seen depends on the method and setting. Some results given as binding are weak or reduced against the parent protein; the word gives no strength.

By UniProt entry, the sequences of proteins in these tests, tags left out. Where a name states a change or a piece, a line headed by the entry shows the natural chain unless it says otherwise.
UniProt P01630: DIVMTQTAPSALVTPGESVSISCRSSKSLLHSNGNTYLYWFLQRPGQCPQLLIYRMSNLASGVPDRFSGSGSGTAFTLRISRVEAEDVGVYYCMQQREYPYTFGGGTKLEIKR

What was measured:
[1] = target: T1, mouse CAPRIN-1 on the cell membrane surface of mouse cancer cells (mouse) (UniProt Q60865); assay: flow cytometry, 4T1
T1 sequence (looked up): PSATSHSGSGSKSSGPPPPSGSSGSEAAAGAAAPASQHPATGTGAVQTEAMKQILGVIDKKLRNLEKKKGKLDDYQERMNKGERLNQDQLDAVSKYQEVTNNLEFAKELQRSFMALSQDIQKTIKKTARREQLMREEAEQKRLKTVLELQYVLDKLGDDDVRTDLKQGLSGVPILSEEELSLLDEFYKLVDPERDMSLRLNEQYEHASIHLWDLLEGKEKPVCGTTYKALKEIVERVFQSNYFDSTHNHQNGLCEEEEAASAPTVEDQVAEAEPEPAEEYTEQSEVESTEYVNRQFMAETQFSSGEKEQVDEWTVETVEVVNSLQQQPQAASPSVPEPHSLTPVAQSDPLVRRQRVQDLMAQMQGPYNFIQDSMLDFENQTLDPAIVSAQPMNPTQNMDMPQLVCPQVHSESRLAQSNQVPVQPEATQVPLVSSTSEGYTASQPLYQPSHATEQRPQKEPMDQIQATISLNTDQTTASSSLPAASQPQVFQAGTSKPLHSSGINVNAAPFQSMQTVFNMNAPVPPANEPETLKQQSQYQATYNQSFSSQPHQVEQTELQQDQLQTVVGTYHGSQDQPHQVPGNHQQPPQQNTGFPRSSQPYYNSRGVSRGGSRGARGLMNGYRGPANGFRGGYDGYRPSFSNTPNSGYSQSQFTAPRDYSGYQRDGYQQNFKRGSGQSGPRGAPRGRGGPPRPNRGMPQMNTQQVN

[2] = target: T2, human CAPRIN-1 on the cell membrane surface of human cancer cells (human) (UniProt Q14444); assay: flow cytometry, HT29
T2 sequence (looked up): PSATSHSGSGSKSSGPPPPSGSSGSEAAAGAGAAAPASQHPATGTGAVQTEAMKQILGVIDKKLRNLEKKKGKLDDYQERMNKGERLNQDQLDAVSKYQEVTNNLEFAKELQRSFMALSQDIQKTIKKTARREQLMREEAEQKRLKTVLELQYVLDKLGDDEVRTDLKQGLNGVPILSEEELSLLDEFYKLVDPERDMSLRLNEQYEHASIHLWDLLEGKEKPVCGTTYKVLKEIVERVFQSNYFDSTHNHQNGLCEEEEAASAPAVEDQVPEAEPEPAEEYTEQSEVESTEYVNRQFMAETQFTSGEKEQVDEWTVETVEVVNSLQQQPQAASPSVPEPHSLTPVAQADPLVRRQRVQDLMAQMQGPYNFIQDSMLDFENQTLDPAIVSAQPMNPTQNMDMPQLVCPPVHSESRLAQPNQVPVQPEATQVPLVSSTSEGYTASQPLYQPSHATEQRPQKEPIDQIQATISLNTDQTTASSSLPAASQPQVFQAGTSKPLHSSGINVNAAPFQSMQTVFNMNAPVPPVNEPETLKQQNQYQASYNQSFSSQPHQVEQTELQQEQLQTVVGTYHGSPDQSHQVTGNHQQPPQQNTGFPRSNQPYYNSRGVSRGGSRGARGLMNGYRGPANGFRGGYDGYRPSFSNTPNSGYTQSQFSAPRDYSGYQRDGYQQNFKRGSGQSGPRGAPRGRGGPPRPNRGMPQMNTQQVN

[3] = target: T2, human CAPRIN-1 on the cell membrane surface of human cancer cells (human); assay: flow cytometry, human cancer cells
[4] = target: T1, mouse CAPRIN-1 on the cell membrane surface of mouse cancer cells (mouse); assay: flow cytometry, mouse cancer cells

Measured: binding

F(ab')2 complex #14 (from UniProt P01630 1-108)
binds: [1] | [2] | [3] | [4]

F(ab')2 complex #30 (from UniProt P01665 12-111)
binds: [1] | [2] | [3] | [4]

F(ab')2 complex #47 (from UniProt P01630 1-108)
binds: [1] | [2] | [3] | [4]

F(ab')2 complex #63 (from UniProt P01665 12-111)
binds: [1] | [2] | [3] | [4]
